Results taken from PubChem BioAssay AID540256 (National Center for Advancing Translational Sciences (NCATS), 2011).
Screen size: about 300,000 compounds; about 3,700 (1.2%) were called active. The shares of active, inactive and inconclusive entries below differ from those in the screen. Calls come from the whole dose curve; tested in HEK293 cells. Where the call is inconclusive, the potency comes from a doubtful curve fit.

Assay: qHTS for Inhibitors of binding or entry into cells for Lassa Virus; note: nearly all actives have a fitted effect of over 50% in size
Conditions: Lassa virus pseudotype entry inhibition, cell reporter; series mostly up to 37.9 µM
Potency is the fitted concentration of half-maximal effect.

Compound	Potency
COc1ccc(CNC(=O)CCc2c(C)c3cc4c(C)c(C)oc4cc3oc2=O)cc1OC	inactive
CCN1CCN(c2ccc(S(=O)(=O)N3CCCCC3)cc2NC(=O)/C=C/c2ccc([N+](=O)[O-])cc2)CC1	inactive
CC(C)c1ccc(OCC(=O)N(Cc2cccs2)C2CCS(=O)(=O)C2)cc1 (configuration not stated)	inactive
CCc1ccc(NC(=O)CN2C(=O)C3(SCC(=O)N3c3ccc(F)c(F)c3)c3ccccc32)cc1 (configuration not stated)	inconclusive: 35.5 µM [inhibitor, single point]
Cc1nnc(N2CCOCC2)c2nn(-c3ccccc3)c(C)c12	inconclusive: 0.146 µM [inhibitor, partial curve, poor fit]
O=[N+]([O-])c1ccc(O)c(/C=N/NC(=S)Nc2ccc(Cl)cc2Cl)c1	inconclusive: 7.08 µM [inhibitor, partial curve, poor fit]
O=C1OC(Cc2ccccn2)C(O)=C1C1=NCCCCN1 (configuration not stated)	inconclusive: 0.562 µM [activator, partial curve, poor fit]
CC(C)c1ccc(NC(=S)NC2CCCCCC2)cc1	inconclusive: 35.5 µM [inhibitor, single point]
Cc1cccc(C2CC(=O)Nc3cc4c(cc32)OCO4)c1 (configuration not stated)	inconclusive: 8.91 µM [inhibitor, partial curve, poor fit]
CC(C)Oc1ccc(C(=O)Nc2c(C(=O)Nc3cccc(F)c3)oc3ccccc23)cc1	inactive
Cc1c(NC(=O)c2ccc3c(c2)C(=O)N(Cc2ccco2)C3=O)cccc1C(=O)O	inactive
CC(=O)c1ccc(N2CCN(C(=O)c3nn(Cc4ccccc4)c(=O)c4ccccc34)CC2)cc1	active: 10 µM
O=C(CN1C(=O)c2cccnc2Oc2ccc(Cl)cc21)Nc1cccc(C(F)(F)F)c1	inconclusive: 14.1 µM [inhibitor, single point]
CC(C)OC(=O)Nc1ccc(Oc2c(F)c(F)c(F)c(F)c2F)cc1	inactive
N=c1n(CCN2CCCCC2)c2ccccc2n1CC(=O)c1cccs1	inconclusive: 10 µM [inhibitor, partial curve]
O=C(CCn1ccc2cc(S(=O)(=O)N3CCCC3)ccc21)NCc1ccccc1Br	inconclusive: 6.31 µM [inhibitor, partial curve, poor fit]
O=C(CSc1nnc(-c2ccccc2F)o1)N1CCCC1	inconclusive: 6.31 µM [activator, single point]
Cc1ccc(CSc2ncnc3c2cnn3Cc2ccccc2)cc1C	inconclusive: 29.1 µM [inhibitor, partial curve, poor fit]
CC(C)(C)NC(=O)NC(=O)COc1ccccc1C#N	inactive
CC(=O)Nc1cccc(-n2cc3c(c2-c2ccccc2Cl)c(=O)n(C)c(=O)n3C)c1	inconclusive: 12.6 µM [inhibitor, single point]
COc1cc(C)c(C2NC(=O)c3ccccc3N2)cc1C (configuration not stated)	inconclusive: 0.282 µM [inhibitor, full curve, poor fit]

In a second layout: 3 of the compounds above
Compound,Potency
Cc1ccc(CSc2ncnc3c2cnn3Cc2ccccc2)cc1C,"inconclusive: 29.1 µM [inhibitor, partial curve, poor fit]"
CC(C)(C)NC(=O)NC(=O)COc1ccccc1C#N,inactive
CC(=O)Nc1cccc(-n2cc3c(c2-c2ccccc2Cl)c(=O)n(C)c(=O)n3C)c1,"inconclusive: 12.6 µM [inhibitor, single point]"

The results go on:

Compound	Potency
CCOC(=O)C1CCN(C(=O)COC(=O)CCOc2ccc(C)cc2)CC1	inconclusive: 16.4 µM [inhibitor, partial curve, poor fit]
N/C(=N\c1nc2ccccc2o1)NC(=O)C(Cc1ccccc1)N1C(=O)c2ccccc2C1=O (configuration not stated)	inconclusive: 35.5 µM [inhibitor, single point]
Cc1cccnc1Sc1c([N+](=O)[O-])ncn1C	inactive
O=C(NC(=S)N1CCN(CCO)CC1)C12CC3CC(CC(C3)C1)C2	inactive
Cc1cc(C)c2nc3nc(C)c(C)cc3c(N)c2c1	inconclusive: 12.6 µM [inhibitor, partial curve, poor fit]
COc1ccc2c(c1)C(=O)N(Cc1ccccc1)C(=O)C2(C)C	inconclusive: 6.31 µM [inhibitor, partial curve, poor fit]
CCN1CCN(C(=O)C2CCN(Cc3cc(Cl)ccc3O)CC2)CC1	inconclusive: 29.1 µM [inhibitor, single point]
CCC(=O)N1CCN(c2nc(-c3ccccc3)c3c(c2C#N)CCCC3)CC1	inconclusive: 1.83 µM [inhibitor, full curve]
CCc1nnc(NC(=O)COc2ccc3c(c2)OCO3)s1	inactive
COc1ccc(NC(C)=O)cc1NC(=O)CN1CCN(c2ccc(F)cc2)CC1	inconclusive: 7.08 µM [inhibitor, full curve, poor fit]
O=S(=O)(c1cccc2ccccc12)N1CCN(c2ccc(Cl)c(Cl)c2)CC1	inconclusive: 12.6 µM [inhibitor, partial curve, poor fit]
CC1CCC(NC(=O)CN2C(=O)NC(C)(C)C2=O)CC1 (configuration not stated)	inconclusive: 1.26 µM [inhibitor, partial curve, poor fit]
Cc1cc(Nc2cccc(C(F)(F)F)c2)nc2ccc(NC(=O)c3cccc(Cl)c3)cc12	inactive
COc1cccc(NC(=S)NN=C2CCC(C(C)(C)C)CC2)c1 (configuration not stated)	inconclusive: 11.2 µM [inhibitor, partial curve, poor fit]
Cn1c(SCC(=O)Nc2ccc(C(N)=O)cc2)nnc1-c1cccs1	inconclusive: 15.8 µM [activator, partial curve, poor fit]
COc1ccccc1NC(=O)C1=C(C)Nc2nc3ccccc3n2C1c1cccc(OC)c1OC (configuration not stated)	inactive
Oc1cccc(C=Nc2cccc3ccccc23)c1O	inconclusive: 3.98 µM [inhibitor, partial curve, poor fit]
Cc1ccc(CNC(=O)c2ccc(CS(=O)Cc3cccc(Cl)c3)o2)cc1 (configuration not stated)	inconclusive: 3.98 µM [inhibitor, full curve, poor fit]
CN1CCN(c2ccc([N+](=O)[O-])c3no[n+]([O-])c23)CC1	active: 0.316 µM
COc1ccc(-c2cc(C(F)(F)F)nc(SCC(=O)NCC(C)C)n2)cc1OC	inconclusive: 4.47 µM [activator, partial curve, poor fit]
COc1cc(C(C)=O)ccc1OCC(O)CN1CCN(c2ccccn2)CC1 (configuration not stated)	inconclusive: 7.94 µM [activator, full curve, poor fit]
